No constants are given. Whether binding was seen depends on the method and setting. In cells and extracts the contact can be indirect. Some results given as binding are weak or reduced against the parent protein; the word gives no strength.
Biological target: NF-κBp65 (mouse (endogenous in RAW264.7)) (UniProt Q04207)
Experiment: co-IP; nuclear lysates of RAW264.7 macrophages, pre-cleared with protein A/G beads; precipitated overnight at 4 °C with anti-NF-κBp65 or anti-PPAR-γ antibody (5 μg), blotted with anti-PPAR-γ or anti-NF-κBp65 antibody respectively; non-immune IgG as negative control; cells also treated with GW1929 (more complex) or GW9662 (less complex)

Amino acid sequences for entries named in this document (tags omitted).
UniProt Q04207: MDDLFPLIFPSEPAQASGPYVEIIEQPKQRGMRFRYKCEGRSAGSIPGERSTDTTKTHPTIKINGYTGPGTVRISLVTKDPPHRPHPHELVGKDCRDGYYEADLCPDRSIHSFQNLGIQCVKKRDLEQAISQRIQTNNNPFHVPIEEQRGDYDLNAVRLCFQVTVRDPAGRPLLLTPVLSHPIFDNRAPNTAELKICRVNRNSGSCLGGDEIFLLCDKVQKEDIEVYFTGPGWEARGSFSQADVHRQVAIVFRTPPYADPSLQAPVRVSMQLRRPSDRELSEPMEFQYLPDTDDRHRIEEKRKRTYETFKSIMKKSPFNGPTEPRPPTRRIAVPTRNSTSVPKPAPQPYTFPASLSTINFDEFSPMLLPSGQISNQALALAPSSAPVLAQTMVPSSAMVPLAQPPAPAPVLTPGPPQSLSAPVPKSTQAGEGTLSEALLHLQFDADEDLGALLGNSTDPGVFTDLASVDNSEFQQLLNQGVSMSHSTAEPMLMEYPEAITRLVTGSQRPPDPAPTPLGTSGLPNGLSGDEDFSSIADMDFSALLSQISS
UniProt P37238: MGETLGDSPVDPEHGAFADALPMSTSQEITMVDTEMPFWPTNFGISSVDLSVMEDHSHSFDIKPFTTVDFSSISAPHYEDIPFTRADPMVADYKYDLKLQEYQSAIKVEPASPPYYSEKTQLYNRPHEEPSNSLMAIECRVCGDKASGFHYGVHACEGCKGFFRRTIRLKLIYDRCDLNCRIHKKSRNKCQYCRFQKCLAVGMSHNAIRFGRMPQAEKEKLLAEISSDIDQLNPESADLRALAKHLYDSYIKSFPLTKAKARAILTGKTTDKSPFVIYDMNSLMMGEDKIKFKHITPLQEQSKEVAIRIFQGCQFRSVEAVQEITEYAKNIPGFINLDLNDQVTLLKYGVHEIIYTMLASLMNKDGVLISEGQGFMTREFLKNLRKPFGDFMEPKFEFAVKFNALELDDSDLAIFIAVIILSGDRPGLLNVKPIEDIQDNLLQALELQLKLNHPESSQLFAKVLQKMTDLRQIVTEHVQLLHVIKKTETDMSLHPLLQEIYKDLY

Peroxisome proliferator activated receptor γ (PPAR-γ) (from UniProt P37238 1-505)
binding: binds
